Data on one substance can be found in paper PMC2688750.

By UniProt entry, the sequences of proteins in these tests, tags left out.
UniProt P02730: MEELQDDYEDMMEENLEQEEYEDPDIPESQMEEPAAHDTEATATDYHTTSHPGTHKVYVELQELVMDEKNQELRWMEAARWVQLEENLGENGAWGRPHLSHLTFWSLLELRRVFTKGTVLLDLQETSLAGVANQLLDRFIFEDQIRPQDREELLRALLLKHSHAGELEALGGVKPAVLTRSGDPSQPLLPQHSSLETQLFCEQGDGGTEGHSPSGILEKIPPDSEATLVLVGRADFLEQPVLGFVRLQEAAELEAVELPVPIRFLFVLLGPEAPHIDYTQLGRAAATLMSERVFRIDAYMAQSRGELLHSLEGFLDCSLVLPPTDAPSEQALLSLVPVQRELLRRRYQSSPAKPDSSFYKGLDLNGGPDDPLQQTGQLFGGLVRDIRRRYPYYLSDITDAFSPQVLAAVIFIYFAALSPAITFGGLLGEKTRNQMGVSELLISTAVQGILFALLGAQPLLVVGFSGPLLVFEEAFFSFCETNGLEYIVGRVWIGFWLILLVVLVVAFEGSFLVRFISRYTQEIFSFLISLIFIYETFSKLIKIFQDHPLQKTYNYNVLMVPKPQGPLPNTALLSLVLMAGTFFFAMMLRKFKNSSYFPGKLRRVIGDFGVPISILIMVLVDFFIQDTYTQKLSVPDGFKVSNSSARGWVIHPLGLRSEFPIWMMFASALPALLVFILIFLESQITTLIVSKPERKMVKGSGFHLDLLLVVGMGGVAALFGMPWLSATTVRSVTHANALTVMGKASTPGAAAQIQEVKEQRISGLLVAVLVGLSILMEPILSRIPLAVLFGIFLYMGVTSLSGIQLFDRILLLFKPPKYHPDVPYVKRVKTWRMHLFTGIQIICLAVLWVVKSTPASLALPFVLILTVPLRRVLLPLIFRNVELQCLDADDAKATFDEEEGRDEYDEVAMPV

No constants are given. Whether binding was seen depends on the method and setting. Some entries that bind do so weakly or less than the wild type.

The target of this assay is erythrocyte membrane protein band 3 (human (endogenous in erythrocytes)) (UniProt P02730). The assay can be described thus: SDS-PAGE and immunoblot (dimer band that persists on the gel); sucrose gradient fractions of erythrocytes lysed in 1% Triton X-100; 4-12% Bis-Tris gel under reducing conditions; probed with a monoclonal antibody to band 3; AA and CC erythrocytes, DRM and bottom fractions. A general note: Immunoblotting shows a protein as a band on a membrane.

On to “erythrocyte membrane protein band 3 (from UniProt P02730 1-911)”, for which the binding entry is on record as “binds”.
